According to the supplement of paper PMC12823440, “Inhibitors supercharge kinase turnover through native proteolytic circuits” (Nature, 2025):
Structures can show the parent of a compound that is named as a salt. The list shows a part of the results. Hit calls seldom repeat between salt and free forms of one compound.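 Kinases, fused to nanoluciferase, were expressed in K562 cells; luminescence was measured every 4 h from 2 to 18 h as percent of control (DMSO = 100%, positive control = 0%). A time point is decreased if signal falls significantly (2 sigma). Hits were called by the authors by a rule that is not shown; the count of time points alone does not decide it.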

Chains of the proteins cited; added tags and fusions are not shown. Lines headed by an entry give the natural chain unless they say otherwise; changes in a name come on top.
UniProt P48729: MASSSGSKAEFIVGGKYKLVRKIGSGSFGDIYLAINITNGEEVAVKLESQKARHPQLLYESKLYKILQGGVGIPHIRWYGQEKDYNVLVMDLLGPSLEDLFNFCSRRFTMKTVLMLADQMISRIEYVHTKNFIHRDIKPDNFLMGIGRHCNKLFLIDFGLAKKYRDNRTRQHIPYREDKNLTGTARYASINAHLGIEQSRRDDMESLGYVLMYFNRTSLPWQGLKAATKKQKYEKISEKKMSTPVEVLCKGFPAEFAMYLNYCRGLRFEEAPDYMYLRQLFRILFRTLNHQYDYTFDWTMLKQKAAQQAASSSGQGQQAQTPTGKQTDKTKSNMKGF
UniProt P48730: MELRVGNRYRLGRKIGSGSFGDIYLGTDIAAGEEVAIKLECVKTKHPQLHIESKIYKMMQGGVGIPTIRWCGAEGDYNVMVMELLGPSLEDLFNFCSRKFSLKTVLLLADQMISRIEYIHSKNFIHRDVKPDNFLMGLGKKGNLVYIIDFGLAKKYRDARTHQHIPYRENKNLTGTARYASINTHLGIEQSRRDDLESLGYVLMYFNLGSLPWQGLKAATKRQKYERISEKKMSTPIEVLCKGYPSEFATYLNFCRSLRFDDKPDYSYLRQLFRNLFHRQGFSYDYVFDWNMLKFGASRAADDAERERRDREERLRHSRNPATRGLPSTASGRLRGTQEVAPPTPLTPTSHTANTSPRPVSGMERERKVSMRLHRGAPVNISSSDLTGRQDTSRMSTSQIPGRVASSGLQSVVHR
UniProt Q9Y463, whole entry, looked up: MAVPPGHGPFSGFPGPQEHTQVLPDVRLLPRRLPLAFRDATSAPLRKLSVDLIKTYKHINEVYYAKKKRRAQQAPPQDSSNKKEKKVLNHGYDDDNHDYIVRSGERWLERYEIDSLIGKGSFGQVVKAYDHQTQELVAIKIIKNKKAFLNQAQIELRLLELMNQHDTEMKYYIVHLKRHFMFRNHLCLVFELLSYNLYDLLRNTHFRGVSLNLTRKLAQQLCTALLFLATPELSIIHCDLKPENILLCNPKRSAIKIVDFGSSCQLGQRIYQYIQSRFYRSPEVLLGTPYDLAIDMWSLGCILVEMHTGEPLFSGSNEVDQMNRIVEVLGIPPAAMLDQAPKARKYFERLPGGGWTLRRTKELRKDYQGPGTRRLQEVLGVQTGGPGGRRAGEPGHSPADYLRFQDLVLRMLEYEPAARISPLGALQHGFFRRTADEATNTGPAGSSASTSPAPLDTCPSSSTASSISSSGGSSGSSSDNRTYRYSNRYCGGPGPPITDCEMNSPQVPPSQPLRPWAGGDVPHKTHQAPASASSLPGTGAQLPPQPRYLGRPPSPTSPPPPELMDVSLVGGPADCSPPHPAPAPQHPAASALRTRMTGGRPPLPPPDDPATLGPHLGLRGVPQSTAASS
UniProt Q92630: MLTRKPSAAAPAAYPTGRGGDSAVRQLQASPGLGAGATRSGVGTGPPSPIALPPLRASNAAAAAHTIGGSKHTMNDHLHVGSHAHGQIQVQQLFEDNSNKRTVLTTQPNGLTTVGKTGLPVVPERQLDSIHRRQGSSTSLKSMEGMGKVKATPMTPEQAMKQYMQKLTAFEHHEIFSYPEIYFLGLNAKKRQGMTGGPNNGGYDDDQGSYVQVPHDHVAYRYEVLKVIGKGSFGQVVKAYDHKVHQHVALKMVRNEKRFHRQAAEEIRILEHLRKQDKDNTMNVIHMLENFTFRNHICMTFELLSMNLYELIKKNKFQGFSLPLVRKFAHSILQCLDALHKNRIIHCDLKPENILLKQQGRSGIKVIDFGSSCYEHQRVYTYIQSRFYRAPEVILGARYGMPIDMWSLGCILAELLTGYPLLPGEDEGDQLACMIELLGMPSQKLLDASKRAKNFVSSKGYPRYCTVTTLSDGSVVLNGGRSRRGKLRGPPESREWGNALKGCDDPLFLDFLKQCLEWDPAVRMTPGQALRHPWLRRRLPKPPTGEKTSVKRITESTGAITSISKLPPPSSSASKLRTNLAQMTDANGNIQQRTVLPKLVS
UniProt P29317, whole entry: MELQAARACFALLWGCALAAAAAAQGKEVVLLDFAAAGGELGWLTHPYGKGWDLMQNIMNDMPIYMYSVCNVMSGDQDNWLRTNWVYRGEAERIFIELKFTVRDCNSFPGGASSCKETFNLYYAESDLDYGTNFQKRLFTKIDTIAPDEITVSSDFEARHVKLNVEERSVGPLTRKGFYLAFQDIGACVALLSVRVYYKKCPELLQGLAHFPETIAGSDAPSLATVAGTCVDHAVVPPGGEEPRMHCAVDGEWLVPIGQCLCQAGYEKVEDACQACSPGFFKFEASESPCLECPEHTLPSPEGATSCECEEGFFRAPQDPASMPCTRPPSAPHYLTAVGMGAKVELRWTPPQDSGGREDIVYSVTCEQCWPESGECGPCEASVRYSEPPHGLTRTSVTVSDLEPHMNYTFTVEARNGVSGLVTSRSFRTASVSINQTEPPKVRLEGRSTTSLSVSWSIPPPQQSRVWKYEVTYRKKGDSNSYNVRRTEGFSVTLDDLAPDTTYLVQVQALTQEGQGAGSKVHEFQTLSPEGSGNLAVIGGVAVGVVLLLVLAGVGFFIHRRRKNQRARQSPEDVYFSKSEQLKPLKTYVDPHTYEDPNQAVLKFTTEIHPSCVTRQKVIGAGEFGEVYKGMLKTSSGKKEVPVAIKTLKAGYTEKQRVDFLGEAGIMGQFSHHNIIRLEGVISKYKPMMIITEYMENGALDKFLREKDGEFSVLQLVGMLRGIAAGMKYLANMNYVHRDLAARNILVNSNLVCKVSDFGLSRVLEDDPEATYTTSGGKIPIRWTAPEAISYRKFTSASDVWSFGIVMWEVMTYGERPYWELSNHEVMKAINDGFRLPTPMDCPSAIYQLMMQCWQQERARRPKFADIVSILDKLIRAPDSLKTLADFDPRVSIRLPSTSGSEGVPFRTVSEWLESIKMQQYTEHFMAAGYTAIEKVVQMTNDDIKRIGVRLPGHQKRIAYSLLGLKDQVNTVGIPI
UniProt O75460: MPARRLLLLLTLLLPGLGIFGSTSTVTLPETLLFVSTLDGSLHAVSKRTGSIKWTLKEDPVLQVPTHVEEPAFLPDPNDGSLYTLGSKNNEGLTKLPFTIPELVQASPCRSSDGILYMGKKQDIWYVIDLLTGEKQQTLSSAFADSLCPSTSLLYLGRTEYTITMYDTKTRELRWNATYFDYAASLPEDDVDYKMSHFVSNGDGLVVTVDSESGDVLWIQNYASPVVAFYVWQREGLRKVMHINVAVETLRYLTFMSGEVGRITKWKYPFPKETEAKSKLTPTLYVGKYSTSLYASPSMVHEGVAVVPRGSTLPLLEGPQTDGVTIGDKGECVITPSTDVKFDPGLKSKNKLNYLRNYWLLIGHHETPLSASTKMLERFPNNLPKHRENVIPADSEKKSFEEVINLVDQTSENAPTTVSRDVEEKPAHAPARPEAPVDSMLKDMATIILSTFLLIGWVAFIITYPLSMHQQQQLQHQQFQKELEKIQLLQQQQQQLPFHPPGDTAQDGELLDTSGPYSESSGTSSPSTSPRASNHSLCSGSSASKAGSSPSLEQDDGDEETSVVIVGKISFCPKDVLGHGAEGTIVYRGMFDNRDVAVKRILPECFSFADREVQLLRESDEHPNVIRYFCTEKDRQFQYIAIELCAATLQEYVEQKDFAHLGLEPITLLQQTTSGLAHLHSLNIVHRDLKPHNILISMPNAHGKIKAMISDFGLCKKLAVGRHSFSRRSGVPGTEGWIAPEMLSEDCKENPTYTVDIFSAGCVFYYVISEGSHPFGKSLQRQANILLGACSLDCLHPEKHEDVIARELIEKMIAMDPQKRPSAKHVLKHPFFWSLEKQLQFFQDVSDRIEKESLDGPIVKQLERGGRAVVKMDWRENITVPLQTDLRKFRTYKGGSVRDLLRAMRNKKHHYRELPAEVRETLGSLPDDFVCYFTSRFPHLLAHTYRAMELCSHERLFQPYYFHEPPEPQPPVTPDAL
UniProt P11362, whole entry, looked up: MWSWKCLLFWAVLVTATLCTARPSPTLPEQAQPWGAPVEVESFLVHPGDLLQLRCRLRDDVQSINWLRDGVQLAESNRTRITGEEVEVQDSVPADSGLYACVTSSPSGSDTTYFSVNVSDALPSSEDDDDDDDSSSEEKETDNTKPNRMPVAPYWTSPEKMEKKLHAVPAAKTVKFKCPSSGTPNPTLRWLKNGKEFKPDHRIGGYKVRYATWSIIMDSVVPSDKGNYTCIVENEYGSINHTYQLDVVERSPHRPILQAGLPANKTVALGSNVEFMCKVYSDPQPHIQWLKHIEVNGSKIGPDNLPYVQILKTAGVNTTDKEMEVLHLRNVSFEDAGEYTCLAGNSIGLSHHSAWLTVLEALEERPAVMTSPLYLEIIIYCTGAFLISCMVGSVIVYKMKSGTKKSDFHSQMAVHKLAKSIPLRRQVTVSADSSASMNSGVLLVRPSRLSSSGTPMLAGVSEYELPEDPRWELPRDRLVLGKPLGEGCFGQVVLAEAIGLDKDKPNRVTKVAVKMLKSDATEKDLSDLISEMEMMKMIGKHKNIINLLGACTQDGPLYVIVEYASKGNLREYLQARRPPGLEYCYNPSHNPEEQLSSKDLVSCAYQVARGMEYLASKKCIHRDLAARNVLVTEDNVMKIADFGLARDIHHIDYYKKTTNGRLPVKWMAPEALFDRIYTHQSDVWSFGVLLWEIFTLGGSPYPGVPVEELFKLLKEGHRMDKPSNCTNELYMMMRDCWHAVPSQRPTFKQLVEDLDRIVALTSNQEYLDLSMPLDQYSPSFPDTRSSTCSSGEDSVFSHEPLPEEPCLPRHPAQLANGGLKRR
UniProt P21802, whole entry, looked up: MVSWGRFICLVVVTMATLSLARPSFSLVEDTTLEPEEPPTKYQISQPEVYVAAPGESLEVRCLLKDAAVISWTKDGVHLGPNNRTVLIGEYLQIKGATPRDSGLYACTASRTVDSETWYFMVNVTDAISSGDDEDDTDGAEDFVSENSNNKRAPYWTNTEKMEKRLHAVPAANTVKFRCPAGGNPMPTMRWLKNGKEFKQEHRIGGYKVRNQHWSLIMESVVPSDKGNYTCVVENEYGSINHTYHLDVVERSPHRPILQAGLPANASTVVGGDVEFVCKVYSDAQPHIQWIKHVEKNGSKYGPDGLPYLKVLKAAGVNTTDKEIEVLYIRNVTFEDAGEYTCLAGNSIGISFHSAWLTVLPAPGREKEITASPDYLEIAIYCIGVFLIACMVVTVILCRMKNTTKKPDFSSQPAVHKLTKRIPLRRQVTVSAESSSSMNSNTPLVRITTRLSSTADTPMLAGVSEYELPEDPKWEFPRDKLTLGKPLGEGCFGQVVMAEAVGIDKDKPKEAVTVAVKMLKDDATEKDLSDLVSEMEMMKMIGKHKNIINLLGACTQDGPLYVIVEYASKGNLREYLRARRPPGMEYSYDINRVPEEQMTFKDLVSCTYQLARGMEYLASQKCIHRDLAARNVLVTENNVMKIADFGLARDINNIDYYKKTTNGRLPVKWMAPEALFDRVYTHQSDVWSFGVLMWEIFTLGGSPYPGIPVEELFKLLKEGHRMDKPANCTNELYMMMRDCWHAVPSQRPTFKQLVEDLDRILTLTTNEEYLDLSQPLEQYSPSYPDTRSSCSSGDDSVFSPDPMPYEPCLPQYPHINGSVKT
UniProt P22607, whole entry, looked up: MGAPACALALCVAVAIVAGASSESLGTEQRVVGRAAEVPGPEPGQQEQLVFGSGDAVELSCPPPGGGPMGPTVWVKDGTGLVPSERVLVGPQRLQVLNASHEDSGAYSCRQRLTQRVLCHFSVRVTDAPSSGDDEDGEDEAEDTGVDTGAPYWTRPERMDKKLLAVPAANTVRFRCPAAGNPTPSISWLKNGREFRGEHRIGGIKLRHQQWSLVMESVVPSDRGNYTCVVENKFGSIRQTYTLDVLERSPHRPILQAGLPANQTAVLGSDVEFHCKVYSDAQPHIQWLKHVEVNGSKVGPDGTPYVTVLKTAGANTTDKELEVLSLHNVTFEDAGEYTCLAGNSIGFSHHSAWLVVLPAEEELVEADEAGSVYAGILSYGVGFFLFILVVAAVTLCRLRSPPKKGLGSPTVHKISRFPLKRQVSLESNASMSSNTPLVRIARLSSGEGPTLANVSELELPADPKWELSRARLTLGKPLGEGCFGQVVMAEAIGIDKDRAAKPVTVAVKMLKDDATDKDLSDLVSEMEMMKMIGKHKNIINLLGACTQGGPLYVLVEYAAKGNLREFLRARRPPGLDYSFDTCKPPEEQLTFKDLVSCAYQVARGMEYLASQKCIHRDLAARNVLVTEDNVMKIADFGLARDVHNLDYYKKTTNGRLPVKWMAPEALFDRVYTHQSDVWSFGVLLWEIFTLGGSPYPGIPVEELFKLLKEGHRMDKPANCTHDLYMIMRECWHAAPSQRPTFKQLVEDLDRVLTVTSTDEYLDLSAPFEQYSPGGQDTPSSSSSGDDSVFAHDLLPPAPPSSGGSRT

Columns and labels:
Assay in all cases: number of time points (of 5) at which kinase-Nluc abundance scored as decreased, DMSO-normalised (count); higher = more persistent destabilization
Conditions in all cases: K562; 2-18 h
[1] = biological target: CSNK1A1 (UniProt P48729)
[2] = biological target: CSNK1D (UniProt P48730)
[3] = biological target: DDR1 (UniProt Q08345)
[4] = biological target: DYRK1B (UniProt Q9Y463)
[5] = biological target: DYRK2 (UniProt Q92630)
[6] = biological target: EGFR (UniProt P00533)
[7] = biological target: EGFR_G719S (UniProt P00533)
[8] = biological target: EGFR_G719S_T790M (UniProt P00533)
[9] = biological target: EGFR_L718V (UniProt P00533)
[10] = biological target: EGFR_L858R (UniProt P00533)
[11] = biological target: EGFR_L861Q (UniProt P00533)
[12] = biological target: EGFR_T790M (UniProt P00533)
[13] = biological target: EPHA2 (UniProt P29317)
[14] = biological target: ERBB3 (UniProt P21860)
[15] = biological target: ERBB4_R711C (clone: ERBB4_mut) (UniProt Q15303)
[16] = biological target: ERN1 (UniProt O75460)
[17] = biological target: FGFR1 (UniProt P11362)
[18] = biological target: FGFR2 (UniProt P21802)
[19] = biological target: FGFR3 (UniProt P22607)
[20] = biological target: FGR (UniProt P09769)

Row | Structure (SMILES) | number of time points [1] | number of time points [2] | number of time points [3] | number of time points [4] | number of time points [5] | number of time points [6] | number of time points [7] | number of time points [8] | number of time points [9] | number of time points [10] | number of time points [11] | number of time points [12] | number of time points [13] | number of time points [14] | number of time points [15] | number of time points [16] | number of time points [17] | number of time points [18] | number of time points [19] | number of time points [20]
1 | CC(C)(C)S(=O)(=O)c1cc2c(Nc3ccc4scnc4c3)ncnc2cc1OCCOP(=O)(O)O (2 µM) | 0 | 0 | 0 | 0 | 0 | 0 | 0 | 0 | 0 | 0 | 0 | 0 | 0 | 0 | 0 | 0 | 0 | 0 | 0 | 0
2 | Cc1ncsc1-c1ccc(CNC(=O)[C@@H]2C[C@@H](O)CN2C(=O)[C@@H](NC(=O)COCCOc2ccc(-c3cc(Nc4ccc(OC(F)(F)F)cc4)ncn3)cc2)C(C)(C)C)cc1 (2.5 µM) | 1 | 1 | 2 | 1 | 3 | 0 | 2 | 1 | 1 | 1 | 2 | 0 | 0 | 3 | 2 | 1 | 1 | 2 | 0 | 0
3 | COc1ccc(CCNCc2ccc(OCc3ccc(Cl)nc3)c(OC)c2)cc1OC [SBE13 (Hydrochloride)] (10 µM) | 0 | 0 | 0 | 0 | 0 | 0 | 0 | 0 | 0 | 0 | 0 | 0 | 0 | 0 | 0 | 0 | 0 | 0 | 0 | 0
4 | CS[C@@]1(C(=O)Nc2ccc3[nH]nc(-c4ccc(OC(C)C)nc4)c3c2)CCN(CC(=O)N2CC=C(c3ccc(-c4ncn(C)n4)cc3)CC2)C1 (2.5 µM) | 0 | 0 | 0 | 0 | 0 | 0 | 0 | 0 | 0 | 0 | 0 | 0 | 0 | 0 | 0 | 0 | 0 | 0 | 0 | 0
5 | O=C(COc1ccc(Cl)cc1)NC1CCC(NC(=O)COc2ccc(Cl)cc2)CC1 (stereo not drawn) [ISRIB (trans-isomer)] (10 µM) | 0 | 0 | 0 | 0 | 0 | 0 | 0 | 0 | 0 | 0 | 0 | 0 | 0 | 0 | 0 | 0 | 0 | 0 | 0 | 0
6 | C[C@@H](NC(=O)c1ncnc(N)c1Cl)c1ncc(C(=O)Nc2cc(C(F)(F)F)c(Cl)cn2)s1 (2.5 µM) | 2 | 2 | 2 | 0 | 4 | 1 | 2 | 2 | 1 | 3 | 2 | 1 | 0 | 3 | 3 | 1 | 0 | 3 | 0 | 0
7 | CC(C)Cn1ncc2cc(Oc3ccc(F)cc3F)c(C(=O)NCCN(C)C)cc21 [p38α inhibitor 1] (10 µM) | 0 | 0 | 0 | 0 | 0 | 0 | 0 | 0 | 0 | 0 | 0 | 0 | 0 | 0 | 0 | 0 | 0 | 0 | 0 | 0
8 | Cc1nc(Nc2cnn(C3CCNCC3)c2)nc2c1N(C)C(=O)c1cc3ccccc3cc1N2C (2.5 µM) | 0 | 0 | 0 | 0 | 0 | 0 | 0 | 0 | 0 | 0 | 0 | 0 | 0 | 0 | 0 | 0 | 0 | 0 | 0 | 0
9 | Cc1cc2c(F)c(Oc3ncnn4cc(OC[C@@H](C)OC(=O)[C@H](C)N)c(C)c34)ccc2[nH]1 [Brivanib (alaninate)] (10 µM) | 0 | 0 | 0 | 0 | 0 | 0 | 0 | 0 | 0 | 0 | 0 | 0 | 0 | 0 | 0 | 0 | 0 | 0 | 0 | 0
10 | O=c1c(O)c(-c2ccc(O)c(O)c2)oc2cc(O)c(O)c(O)c12 [Quercetagetin] (10 µM) | 0 | 0 | 0 | 0 | 0 | 0 | 0 | 0 | 0 | 0 | 0 | 0 | 0 | 0 | 0 | 0 | 0 | 0 | 0 | 0
11 | N#C/C(=C/c1ccc(O)c(O)c1)C(=O)N1CCc2ccccc21 [Tyrphostin AG 528] (10 µM) | 0 | 0 | 0 | 0 | 0 | 0 | 0 | 0 | 0 | 0 | 0 | 0 | 0 | 0 | 0 | 0 | 0 | 0 | 0 | 0
12 | CC(C)n1c(CO)nc2c(F)cc(-c3nc(Nc4ccc(CN5CCNCC5)cn4)ncc3F)cc21 (10 µM) | 1 | 0 | 3 | 2 | 4 | 1 | 3 | 3 | 1 | 3 | 3 | 3 | 1 | 4 | 4 | 2 | 0 | 3 | 0 | 0
13 | N#Cc1cc(N2CCC(C(=O)N3N=CC[C@H]3c3cc(F)cc(F)c3)CC2)ncn1 (10 µM) | 0 | 0 | 0 | 0 | 0 | 0 | 0 | 0 | 0 | 0 | 0 | 0 | 0 | 0 | 0 | 0 | 0 | 0 | 0 | 0
14 | O=C(Nc1ccc(F)cc1F)C(NC(=S)Nc1cc(C(F)(F)F)cc(C(F)(F)F)c1)c1ccccc1 (racemic) (2.5 µM) | 0 | 0 | 0 | 0 | 0 | 0 | 0 | 0 | 0 | 0 | 0 | 0 | 0 | 0 | 0 | 0 | 0 | 0 | 0 | 0
15 | CCNC(=O)Nc1ccc(-c2nc3c(c(N4CCOC[C@@H]4C)n2)CCN(C2COC2)C3)cc1 (2.5 µM) | 0 | 0 | 5 | 0 | 0 | 0 | 0 | 0 | 0 | 0 | 0 | 0 | 0 | 0 | 1 | 0 | 0 | 0 | 0 | 0
16 | O=C(C#Cc1ccccc1)c1cccc([N+](=O)[O-])c1 (10 µM) | 0 | 0 | 0 | 0 | 0 | 0 | 0 | 0 | 0 | 0 | 0 | 0 | 0 | 0 | 0 | 0 | 0 | 0 | 0 | 0
17 | CN(C)CCOc1cc(-c2cn[nH]c2)ccc1NC(=O)C1COc2ccccc2O1 (stereo not given) (10 µM) | 0 | 0 | 0 | 0 | 0 | 0 | 0 | 0 | 0 | 0 | 0 | 0 | 0 | 0 | 0 | 0 | 0 | 0 | 0 | 0
18 | CC(ONC(=O)c1cc(C(F)(F)F)cc(C(F)(F)F)c1)C(=O)Nc1ccc(Cl)cc1 (stereo not given) (2.5 µM) | 5 | 0 | 0 | 0 | 0 | 0 | 5 | 0 | 0 | 0 | 0 | 0 | 0 | 0 | 0 | 0 | 0 | 0 | 0 | 0
19 | Oc1ccc(-c2cnc3ccc(NCc4ccco4)nn23)cc1 [IRAK inhibitor 2] (2.5 µM) | 0 | 0 | 0 | 0 | 0 | 0 | 0 | 0 | 0 | 0 | 0 | 0 | 0 | 0 | 0 | 0 | 0 | 0 | 0 | 0
20 | CC(C)=CCC[C@](C)(O[C@@H]1O[C@H](CO[C@@H]2O[C@H](CO)[C@@H](O)[C@H](O)[C@H]2O)[C@@H](O)[C@H](O)[C@H]1O)[C@H]1CC[C@]2(C)[C@@H]1[C@H](O)C[C@@H]1[C@@]3(C)CC[C@H](O[C@@H]4O[C@H](CO)[C@@H](O)[C@H](O)[C@H]4O[C@@H]4O[C@H](CO)[C@@H](O)[C@H](O)[C@H]4O)C(C)(C)[C@@H]3CC[C@]12C [Ginsenoside Rb1] (10 µM) | 0 | 0 | 0 | 0 | 0 | 0 | 0 | 0 | 0 | 0 | 0 | 0 | 0 | 0 | 0 | 0 | 0 | 0 | 0 | 0
21 | CCC(F)(F)c1cc(N2CCC(S(C)(=O)=O)CC2)nc2sc(C(N)=O)c(N)c12 (10 µM) | 0 | 0 | 0 | 0 | 0 | 0 | 0 | 0 | 0 | 0 | 0 | 0 | 0 | 0 | 0 | 0 | 0 | 0 | 0 | 0
22 | CN1CCN(c2ccc(-c3ccncc3-c3cc(F)c(O)c(F)c3)cc2)CC1 (10 µM) | 0 | 0 | 0 | 0 | 0 | 0 | 0 | 0 | 0 | 0 | 0 | 0 | 0 | 0 | 0 | 0 | 0 | 0 | 0 | 0
23 | CCCS(=O)(=O)N[C@H]1C[C@@H](N(C)c2ncnc3[nH]ccc23)C1 [Abrocitinib] (10 µM) | 0 | 0 | 0 | 0 | 0 | 0 | 0 | 0 | 0 | 0 | 0 | 0 | 0 | 0 | 0 | 0 | 0 | 0 | 0 | 0

Single entries from above:
number of time points [19], `Oc1ccc(-c2cnc3ccc(NCc4ccco4)nn23)cc1` [IRAK inhibitor 2] (2.5 µM) reads 0
number of time points [9], `CCNC(=O)Nc1ccc(-c2nc3c(c(N4CCOC[C@@H]4C)n2)CCN(C2COC2)C3)cc1` (2.5 µM) reads 0
